From PMC12795676, “Integrin α5β1 mediates the inhibitory effects of vasoinhibin on angiogenesis and vascular permeability [drawing 1]” (The Journal of Biological Chemistry, 2025)
No constants are given. Whether binding was seen depends on the method and setting. Binding seen in cells or lysates may run through a third protein. Some results given as binding are weak or reduced against the parent protein; the word gives no strength.

Protein sequences, listed by entry. Tags and fused reporters are not part of them. Lines headed by an entry give the natural chain unless they say otherwise; changes in a name come on top. Residues count along the entry.
UniProt Q03405, residues 23-305: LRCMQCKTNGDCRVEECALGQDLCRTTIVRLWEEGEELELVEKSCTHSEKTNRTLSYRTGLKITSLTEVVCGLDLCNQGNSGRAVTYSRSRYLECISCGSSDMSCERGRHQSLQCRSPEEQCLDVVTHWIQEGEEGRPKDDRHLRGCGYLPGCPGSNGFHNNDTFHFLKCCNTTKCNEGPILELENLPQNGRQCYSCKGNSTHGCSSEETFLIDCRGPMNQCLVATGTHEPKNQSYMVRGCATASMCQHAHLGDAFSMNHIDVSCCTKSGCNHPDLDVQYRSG
UniProt P08648: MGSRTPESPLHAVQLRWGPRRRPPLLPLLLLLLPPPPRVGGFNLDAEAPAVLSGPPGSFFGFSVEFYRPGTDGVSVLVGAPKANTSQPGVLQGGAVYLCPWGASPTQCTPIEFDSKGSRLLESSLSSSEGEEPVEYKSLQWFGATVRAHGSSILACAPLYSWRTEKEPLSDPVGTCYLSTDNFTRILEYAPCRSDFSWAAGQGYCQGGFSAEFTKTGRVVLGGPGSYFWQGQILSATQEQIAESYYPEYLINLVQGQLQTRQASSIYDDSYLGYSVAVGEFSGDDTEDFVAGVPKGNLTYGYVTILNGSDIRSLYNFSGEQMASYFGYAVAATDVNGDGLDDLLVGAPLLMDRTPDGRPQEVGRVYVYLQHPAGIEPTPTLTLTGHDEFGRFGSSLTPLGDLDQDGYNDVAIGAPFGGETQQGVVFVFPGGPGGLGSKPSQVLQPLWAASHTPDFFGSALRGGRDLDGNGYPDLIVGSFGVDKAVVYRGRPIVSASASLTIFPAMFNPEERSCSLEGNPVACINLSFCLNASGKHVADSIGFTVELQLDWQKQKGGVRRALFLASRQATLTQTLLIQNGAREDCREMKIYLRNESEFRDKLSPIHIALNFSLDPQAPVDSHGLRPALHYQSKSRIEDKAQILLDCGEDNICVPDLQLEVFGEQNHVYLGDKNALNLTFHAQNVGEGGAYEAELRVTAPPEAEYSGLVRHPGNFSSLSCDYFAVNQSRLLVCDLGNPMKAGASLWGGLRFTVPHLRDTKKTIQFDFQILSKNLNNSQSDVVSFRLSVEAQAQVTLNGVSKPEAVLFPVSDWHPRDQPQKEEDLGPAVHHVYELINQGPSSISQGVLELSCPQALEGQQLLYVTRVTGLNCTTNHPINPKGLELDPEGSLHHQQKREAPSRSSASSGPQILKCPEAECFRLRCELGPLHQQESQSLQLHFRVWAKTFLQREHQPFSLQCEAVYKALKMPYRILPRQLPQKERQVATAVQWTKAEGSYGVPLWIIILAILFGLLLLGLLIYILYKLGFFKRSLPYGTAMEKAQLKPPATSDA

Biological target: T1, biotinylated peptide comprising residues 45 to 51 of vasoinhibin (B-Vi45-51) (UniProt P01236)
T1 sequence (peptide, biotin (position not stated)): THGRGFI
Assay: pull-down; HUVECs treated with 500 nM B-Vi45-51, 20 ng/mL bFGF and 25 ng/mL VEGF for 1 h, lysed in RIPA, sonicated, 30 min at 37 °C, pulled down with Dynabeads Streptavidin T1; Western blot for integrin α5, PAI-1 and uPAR; only the target purified

binding | Substance
no binding (tested: 500 nM B-Vi45-51) | urokinase-type plasminogen activator receptor (uPAR), endogenous in HUVECs (from UniProt Q03405 23-305)
binds | integrin α5β1, endogenous in HUVECs (detected by blot of integrin α5, ∼145 kDa) (from UniProt P08648 42-1049; P05556 21-798) (receptor)
